From the supplement of paper PMC10849652
The list shows a part of the results.

Sequences of proteins named here, by UniProt entry; tags and fusion partners are left off. A change or cut given only in a name is not applied to a line headed by its entry.
UniProt Q9H3Z4: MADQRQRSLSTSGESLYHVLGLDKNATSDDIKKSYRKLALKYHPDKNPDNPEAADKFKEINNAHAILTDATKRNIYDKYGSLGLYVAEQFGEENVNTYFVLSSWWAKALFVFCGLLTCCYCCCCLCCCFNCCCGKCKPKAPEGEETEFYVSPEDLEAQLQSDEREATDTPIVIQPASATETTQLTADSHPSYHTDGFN
UniProt O75190: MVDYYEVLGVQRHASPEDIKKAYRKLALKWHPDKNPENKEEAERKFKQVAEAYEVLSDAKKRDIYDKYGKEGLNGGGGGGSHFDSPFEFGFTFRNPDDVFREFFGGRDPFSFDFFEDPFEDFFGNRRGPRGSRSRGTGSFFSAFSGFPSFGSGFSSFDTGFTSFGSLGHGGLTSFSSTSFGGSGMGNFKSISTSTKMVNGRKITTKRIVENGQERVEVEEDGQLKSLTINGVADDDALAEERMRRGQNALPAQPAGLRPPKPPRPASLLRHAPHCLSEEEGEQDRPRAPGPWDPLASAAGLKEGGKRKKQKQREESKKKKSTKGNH
UniProt O60231: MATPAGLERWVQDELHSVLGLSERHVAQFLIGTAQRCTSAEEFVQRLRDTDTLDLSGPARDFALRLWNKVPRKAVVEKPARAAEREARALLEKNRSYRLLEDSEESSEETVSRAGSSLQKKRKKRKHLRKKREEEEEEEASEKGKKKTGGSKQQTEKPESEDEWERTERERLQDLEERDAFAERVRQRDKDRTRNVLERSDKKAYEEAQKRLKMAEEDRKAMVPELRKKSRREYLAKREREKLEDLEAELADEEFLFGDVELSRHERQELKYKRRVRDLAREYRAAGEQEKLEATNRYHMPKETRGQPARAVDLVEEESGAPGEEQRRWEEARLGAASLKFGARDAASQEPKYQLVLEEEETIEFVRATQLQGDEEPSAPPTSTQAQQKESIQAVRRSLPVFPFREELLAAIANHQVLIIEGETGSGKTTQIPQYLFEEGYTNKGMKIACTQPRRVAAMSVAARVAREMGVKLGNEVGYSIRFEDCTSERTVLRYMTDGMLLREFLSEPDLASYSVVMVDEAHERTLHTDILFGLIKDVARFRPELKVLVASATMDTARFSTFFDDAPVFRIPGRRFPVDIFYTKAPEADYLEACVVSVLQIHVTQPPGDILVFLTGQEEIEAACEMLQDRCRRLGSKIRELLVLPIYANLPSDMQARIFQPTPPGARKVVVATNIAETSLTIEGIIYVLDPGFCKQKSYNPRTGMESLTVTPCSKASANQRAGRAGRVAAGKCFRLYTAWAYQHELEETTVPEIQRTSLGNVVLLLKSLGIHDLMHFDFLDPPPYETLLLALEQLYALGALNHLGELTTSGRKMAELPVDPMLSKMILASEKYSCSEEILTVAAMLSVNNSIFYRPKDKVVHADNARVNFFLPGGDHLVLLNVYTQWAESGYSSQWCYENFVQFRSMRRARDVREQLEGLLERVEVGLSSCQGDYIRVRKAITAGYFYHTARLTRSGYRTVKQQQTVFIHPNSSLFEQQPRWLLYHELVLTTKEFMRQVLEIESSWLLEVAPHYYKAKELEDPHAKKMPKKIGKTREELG
UniProt O00115: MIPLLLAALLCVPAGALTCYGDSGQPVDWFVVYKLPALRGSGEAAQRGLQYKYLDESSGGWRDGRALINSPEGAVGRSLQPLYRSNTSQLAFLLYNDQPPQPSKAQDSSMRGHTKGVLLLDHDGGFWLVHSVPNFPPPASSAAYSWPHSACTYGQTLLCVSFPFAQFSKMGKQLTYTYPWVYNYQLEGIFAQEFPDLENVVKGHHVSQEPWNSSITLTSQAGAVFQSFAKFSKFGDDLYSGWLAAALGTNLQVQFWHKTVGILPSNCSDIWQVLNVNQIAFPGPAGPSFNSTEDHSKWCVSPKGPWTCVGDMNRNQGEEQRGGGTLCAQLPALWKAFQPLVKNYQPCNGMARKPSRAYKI
UniProt Q9NVM6: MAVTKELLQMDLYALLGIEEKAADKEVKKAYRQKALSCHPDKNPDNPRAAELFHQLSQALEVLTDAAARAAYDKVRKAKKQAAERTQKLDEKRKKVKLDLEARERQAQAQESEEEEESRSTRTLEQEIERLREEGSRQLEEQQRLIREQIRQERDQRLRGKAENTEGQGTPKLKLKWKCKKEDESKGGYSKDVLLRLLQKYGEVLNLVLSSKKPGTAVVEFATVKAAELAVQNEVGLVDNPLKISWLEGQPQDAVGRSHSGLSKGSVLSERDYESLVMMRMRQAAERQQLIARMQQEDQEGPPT
UniProt Q6IAN0: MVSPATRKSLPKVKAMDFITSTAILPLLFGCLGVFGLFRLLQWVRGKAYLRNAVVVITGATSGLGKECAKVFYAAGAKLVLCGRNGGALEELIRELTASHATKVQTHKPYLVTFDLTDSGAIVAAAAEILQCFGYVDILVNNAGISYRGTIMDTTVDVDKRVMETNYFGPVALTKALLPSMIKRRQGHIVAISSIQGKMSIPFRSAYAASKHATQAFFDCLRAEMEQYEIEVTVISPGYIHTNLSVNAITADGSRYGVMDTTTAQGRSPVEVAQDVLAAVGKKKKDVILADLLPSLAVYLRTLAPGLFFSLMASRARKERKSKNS
UniProt Q96DA6: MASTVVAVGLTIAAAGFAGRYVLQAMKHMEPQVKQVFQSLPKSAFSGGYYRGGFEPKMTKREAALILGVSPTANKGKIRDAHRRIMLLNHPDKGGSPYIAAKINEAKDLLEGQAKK
UniProt Q9H5Z1: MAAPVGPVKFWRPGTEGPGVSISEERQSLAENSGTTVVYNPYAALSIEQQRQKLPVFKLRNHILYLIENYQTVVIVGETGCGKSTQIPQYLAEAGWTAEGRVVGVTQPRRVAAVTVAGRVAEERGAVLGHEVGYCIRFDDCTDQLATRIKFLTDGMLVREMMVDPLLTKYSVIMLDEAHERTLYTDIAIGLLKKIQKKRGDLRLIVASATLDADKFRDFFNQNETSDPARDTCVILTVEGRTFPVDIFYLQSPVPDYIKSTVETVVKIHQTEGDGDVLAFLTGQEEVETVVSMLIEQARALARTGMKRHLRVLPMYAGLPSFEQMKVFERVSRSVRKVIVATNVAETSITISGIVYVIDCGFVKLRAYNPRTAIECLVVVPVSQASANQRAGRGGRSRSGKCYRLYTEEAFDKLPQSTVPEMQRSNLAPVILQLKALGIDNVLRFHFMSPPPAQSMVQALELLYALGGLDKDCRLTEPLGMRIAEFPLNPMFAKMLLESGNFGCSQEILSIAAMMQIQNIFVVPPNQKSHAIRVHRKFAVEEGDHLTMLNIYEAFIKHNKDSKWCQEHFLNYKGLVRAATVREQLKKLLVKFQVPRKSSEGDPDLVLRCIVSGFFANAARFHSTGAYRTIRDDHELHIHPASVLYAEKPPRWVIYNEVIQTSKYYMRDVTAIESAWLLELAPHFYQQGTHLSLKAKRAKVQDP
UniProt Q9NVR5: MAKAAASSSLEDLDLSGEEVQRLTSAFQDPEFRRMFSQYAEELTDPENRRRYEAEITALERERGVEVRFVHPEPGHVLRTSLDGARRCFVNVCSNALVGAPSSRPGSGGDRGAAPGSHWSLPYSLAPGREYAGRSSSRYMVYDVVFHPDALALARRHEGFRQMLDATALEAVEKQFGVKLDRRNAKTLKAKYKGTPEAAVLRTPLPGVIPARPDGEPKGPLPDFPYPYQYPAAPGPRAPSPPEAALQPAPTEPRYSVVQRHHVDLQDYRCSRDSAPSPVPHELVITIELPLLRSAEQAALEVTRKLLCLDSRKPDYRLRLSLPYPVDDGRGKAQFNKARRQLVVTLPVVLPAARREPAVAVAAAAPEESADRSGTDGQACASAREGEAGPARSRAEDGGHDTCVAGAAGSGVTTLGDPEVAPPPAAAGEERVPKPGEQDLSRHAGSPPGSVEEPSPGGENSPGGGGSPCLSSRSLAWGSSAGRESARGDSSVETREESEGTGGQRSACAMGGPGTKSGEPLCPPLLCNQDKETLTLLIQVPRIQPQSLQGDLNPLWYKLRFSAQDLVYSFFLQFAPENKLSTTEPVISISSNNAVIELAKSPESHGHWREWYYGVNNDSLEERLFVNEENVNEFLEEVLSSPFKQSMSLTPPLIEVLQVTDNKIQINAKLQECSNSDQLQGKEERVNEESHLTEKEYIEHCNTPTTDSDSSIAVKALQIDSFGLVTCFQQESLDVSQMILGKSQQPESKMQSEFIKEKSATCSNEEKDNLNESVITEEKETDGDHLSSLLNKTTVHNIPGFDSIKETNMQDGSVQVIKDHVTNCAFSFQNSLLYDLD
UniProt Q96LJ7: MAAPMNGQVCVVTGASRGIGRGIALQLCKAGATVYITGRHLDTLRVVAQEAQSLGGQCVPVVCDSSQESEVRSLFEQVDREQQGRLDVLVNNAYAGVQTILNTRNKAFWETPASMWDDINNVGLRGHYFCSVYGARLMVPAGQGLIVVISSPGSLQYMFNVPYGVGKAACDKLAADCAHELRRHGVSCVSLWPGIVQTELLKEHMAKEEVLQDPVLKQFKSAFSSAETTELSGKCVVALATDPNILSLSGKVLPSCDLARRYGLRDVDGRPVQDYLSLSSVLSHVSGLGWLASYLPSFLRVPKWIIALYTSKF
UniProt O60832: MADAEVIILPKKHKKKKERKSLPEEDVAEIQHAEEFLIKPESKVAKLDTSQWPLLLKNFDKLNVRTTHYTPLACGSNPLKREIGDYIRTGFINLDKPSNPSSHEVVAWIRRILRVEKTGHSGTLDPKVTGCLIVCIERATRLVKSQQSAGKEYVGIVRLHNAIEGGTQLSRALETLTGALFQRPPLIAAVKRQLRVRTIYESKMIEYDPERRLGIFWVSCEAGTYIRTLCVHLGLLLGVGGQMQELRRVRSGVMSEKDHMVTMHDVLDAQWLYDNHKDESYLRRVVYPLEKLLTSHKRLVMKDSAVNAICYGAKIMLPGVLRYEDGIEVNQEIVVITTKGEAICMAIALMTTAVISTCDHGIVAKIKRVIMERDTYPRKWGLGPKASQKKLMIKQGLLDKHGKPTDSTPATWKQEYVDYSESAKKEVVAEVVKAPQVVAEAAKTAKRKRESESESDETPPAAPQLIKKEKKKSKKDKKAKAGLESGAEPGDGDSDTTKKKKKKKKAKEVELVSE
UniProt Q7Z478: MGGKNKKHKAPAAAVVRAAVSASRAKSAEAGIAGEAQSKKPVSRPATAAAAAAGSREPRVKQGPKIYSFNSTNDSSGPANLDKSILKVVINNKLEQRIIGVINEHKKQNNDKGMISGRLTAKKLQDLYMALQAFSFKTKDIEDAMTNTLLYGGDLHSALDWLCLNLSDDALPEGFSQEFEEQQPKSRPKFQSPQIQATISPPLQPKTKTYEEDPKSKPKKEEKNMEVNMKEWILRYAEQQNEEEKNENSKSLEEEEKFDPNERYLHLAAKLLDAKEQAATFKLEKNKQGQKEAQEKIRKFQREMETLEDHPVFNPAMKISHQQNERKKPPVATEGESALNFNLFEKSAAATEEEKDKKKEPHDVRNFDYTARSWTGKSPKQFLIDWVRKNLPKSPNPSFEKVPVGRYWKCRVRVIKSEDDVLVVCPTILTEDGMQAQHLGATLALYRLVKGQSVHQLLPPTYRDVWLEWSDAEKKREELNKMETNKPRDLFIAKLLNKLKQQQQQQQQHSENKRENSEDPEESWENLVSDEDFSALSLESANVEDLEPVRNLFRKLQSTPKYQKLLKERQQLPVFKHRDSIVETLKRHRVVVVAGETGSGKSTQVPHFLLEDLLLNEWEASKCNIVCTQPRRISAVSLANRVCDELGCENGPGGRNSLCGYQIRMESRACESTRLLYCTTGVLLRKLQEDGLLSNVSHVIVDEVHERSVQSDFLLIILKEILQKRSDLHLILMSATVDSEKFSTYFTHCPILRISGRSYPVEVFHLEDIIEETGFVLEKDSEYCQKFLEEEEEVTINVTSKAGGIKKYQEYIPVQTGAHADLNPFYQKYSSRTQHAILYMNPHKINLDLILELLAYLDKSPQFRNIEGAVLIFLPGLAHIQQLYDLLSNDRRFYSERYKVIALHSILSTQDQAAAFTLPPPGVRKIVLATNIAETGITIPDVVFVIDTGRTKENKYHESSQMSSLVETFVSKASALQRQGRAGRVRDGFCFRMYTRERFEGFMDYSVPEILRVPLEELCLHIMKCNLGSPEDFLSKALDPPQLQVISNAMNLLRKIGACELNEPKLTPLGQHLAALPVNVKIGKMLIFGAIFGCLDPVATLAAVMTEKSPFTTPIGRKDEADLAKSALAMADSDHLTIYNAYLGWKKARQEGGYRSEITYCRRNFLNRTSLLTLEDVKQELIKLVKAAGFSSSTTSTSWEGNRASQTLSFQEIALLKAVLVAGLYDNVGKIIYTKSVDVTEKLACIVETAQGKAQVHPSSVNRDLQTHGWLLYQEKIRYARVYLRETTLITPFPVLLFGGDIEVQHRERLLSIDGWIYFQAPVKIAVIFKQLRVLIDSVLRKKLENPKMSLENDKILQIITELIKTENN

Tests used:
Assay in all cases: log2 fold change, soluble protein after heating vs DMSO (PISA); higher = thermal stabilisation; K562 lysate, 10 uM; active = over 0.2 and 3.5 SD of the protein, either way, in both replicates (recomputed)
vemurafenib = compound: CCCS(=O)(=O)Nc1ccc(F)c(C(=O)c2c[nH]c3ncc(-c4ccc(Cl)cc4)cc23)c1F [vemurafenib]
Summary of the method: (§1)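 Soluble protein was defined as the supernatant remaining after 21,000xg for 90 min, following pooling of heated aliquots and adjustment to 0.5% NP-40 at 4°C. Before that, crude K562 extract at 1 mg/mL protein in PBS pH 7.4 with 1 mM MgCl2 was treated with 10 μM compound for 30 min and heated for 3 min across 48°C-58°C. Quantification used TMTpro 16plex LC-MS/MS with channel sums equalised, and values are log-two fold changes in thermal stability relative to solvent controls from duplicates.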

[1] = compound: CCCS(=O)(=O)Nc1ccc(F)c(C(=O)c2c[nH]c3ncc(Cl)cc23)c1F
Summary of the method: as §1

barasertib = compound: CCN(CCCOc1ccc2c(Nc3cc(CC(=O)Nc4cccc(F)c4)[nH]n3)ncnc2c1)CCOP(=O)(O)O [barasertib]
Summary of the method: as §1

[2] = compound: CC[C@@H]1C(=O)N(C)c2cnc(Nc3ccc(C(=O)NC4CCN(C)CC4)cc3OC)nc2N1C1CCCC1
Summary of the method: as §1

volasertib = compound: CC[C@@H]1C(=O)N(C)c2cnc(Nc3ccc(C(=O)N[C@H]4CC[C@H](N5CCN(CC6CC6)CC5)CC4)cc3OC)nc2N1C(C)C [volasertib]
Summary of the method: as §1

[3] = compound: CCn1c(C(=O)N(C2CC2)C2CC2)cc2c3c(ncn3C)c(Nc3cc(C)n(C)n3)nc21
Summary of the method: as §1

[4] = compound: CCn1cc(-c2ccnc3[nH]c(-c4cccc(CN(C)C)c4)cc23)c(-c2ccc(NC(=O)N(C)C)cc2)n1
Summary of the method: as §1

[5] = compound: CN1CCC(CNc2ccc3ncc(-c4cccc(OC(F)(F)F)c4)n3n2)CC1
Summary of the method: as §1

saracatinib = compound: CN1CCN(CCOc2cc(OC3CCOCC3)c3c(Nc4c(Cl)ccc5c4OCO5)ncnc3c2)CC1 [saracatinib]
Summary of the method: as §1

sotrastaurin = compound: CN1CCN(c2nc(C3=C(c4c[nH]c5ccccc45)C(=O)NC3=O)c3ccccc3n2)CC1 [sotrastaurin]
Summary of the method: as §1

alvocidib = compound: CN1CC[C@H](c2c(O)cc(O)c3c(=O)cc(-c4ccccc4Cl)oc23)[C@H](O)C1 [alvocidib]
Summary of the method: as §1

Tubastatin A = compound: CN1CCc2c(c3ccccc3n2Cc2ccc(C(=O)NO)cc2)C1 [Tubastatin A]
Summary of the method: as §1

[6] = compound: CNC(=O)C1=CC=CC=C1NC2=NC(=NC=C2Cl)NC3=C(C=C(C=C3)N4CCOCC4)OC
Summary of the method: as §1

defactinib = compound: CNC(=O)c1ccc(Nc2ncc(C(F)(F)F)c(NCc3nccnc3N(C)S(C)(=O)=O)n2)cc1 [defactinib]
Summary of the method: as §1

[7] = compound: CNc1nc(-c2ccc3c(N)n[nH]c3c2)cc(N2C[C@@H](C(=O)NC3CCCCC3)CC[C@H]2C)n1
Summary of the method: as §1

encorafenib = compound: COC(=O)N[C@@H](C)CNc1nccc(-c2cn(C(C)C)nc2-c2cc(Cl)cc(NS(C)(=O)=O)c2F)n1 [encorafenib]
Summary of the method: as §1

[8] = compound: COC(=O)[C@H](CCSC)NC(=O)C1=C(C=C(C=C1)NC[C@H](CS)N)C2=CC=CC=C2
Summary of the method: as §1

alisertib = compound: COc1cc(Nc2ncc3c(n2)-c2ccc(Cl)cc2C(c2c(F)cccc2OC)=NC3)ccc1C(=O)O [alisertib]
Summary of the method: as §1

[9] = compound: COc1cc2nc(-c3cc(F)ccc3O)nc(N[C@@H]3CNC[C@H]3C(C)(C)O)c2cc1OC
Summary of the method: as §1

gefitinib = compound: COc1cc2ncnc(Nc3ccc(F)c(Cl)c3)c2cc1OCCCN1CCOCC1 [gefitinib]
Summary of the method: as §1

Target | log2 fold change (vemurafenib) | log2 fold change [1] | log2 fold change (barasertib) | log2 fold change [2] | log2 fold change (volasertib) | log2 fold change [3] | log2 fold change [4] | log2 fold change [5] | log2 fold change (saracatinib) | log2 fold change (sotrastaurin) | log2 fold change (alvocidib) | log2 fold change (Tubastatin A) | log2 fold change [6] | log2 fold change (defactinib) | log2 fold change [7] | log2 fold change (encorafenib) | log2 fold change [8] | log2 fold change (alisertib) | log2 fold change [9] | log2 fold change (gefitinib)
DNAJC5 (UniProt Q9H3Z4) | inactive: 0.001 | inactive: -0.02 | inactive: 0.008 | inactive: -0.031 | inactive: 0.012 | inactive: 0.015 | active: -0.476 | inactive: 0.243 | inactive: 0.01 | inactive: 0.041 | inactive: -0.216 | inactive: 0.062 | inactive: 0.019 | inactive: 0.011 | inactive: 0.054 | inactive: 0.016 | inactive: -0.057 | inactive: -0.119 | inactive: 0.019 | inactive: -0.039
DNAJB6 (UniProt O75190) | inactive: -0.026 | inactive: 0.017 | inactive: 0.046 | inactive: -0.005 | inactive: 0.011 | inactive: -0.001 | inactive: -0.018 | inactive: 0.008 | inactive: 0.079 | inactive: 0.015 | inactive: -0.015 | inactive: 0.007 | inactive: 0.04 | inactive: 0.009 | inactive: 0.023 | inactive: 0.069 | inactive: 0.015 | inactive: -0.034 | inactive: -0.01 | inactive: 0.051
DHX16 (UniProt O60231) | inactive: 0.026 | inactive: 0.031 | inactive: 0.002 | inactive: -0.019 | inactive: -0.024 | inactive: -0.029 | inactive: 0.044 | inactive: -0.117 | inactive: 0.005 | inactive: 0.021 | inactive: 0.014 | inactive: 0.008 | inactive: 0.002 | inactive: 0.009 | inactive: -0.013 | inactive: 0.017 | inactive: -0.032 | inactive: 0.015 | inactive: -0.039 | inactive: -0.002
DNAAF5 (UniProt Q86Y56) | inactive: -0.006 | inactive: -0.007 | inactive: 0.03 | inactive: -0.062 | inactive: -0.06 | inactive: 0.047 | inactive: -0.035 | inactive: -0.049 | inactive: 0.04 | inactive: 0.044 | inactive: 0.024 | inactive: -0.155 | inactive: -0.011 | inactive: -0.009 | inactive: -0.011 | inactive: 0.073 | inactive: 0.101 | inactive: 0.038 | inactive: 0.012 | inactive: -0.018
DNASE2 (UniProt O00115) | inactive: -0.003 | inactive: 0.026 | inactive: 0.005 | inactive: 0.001 | inactive: 0.029 | inactive: 0.021 | inactive: -0.022 | inactive: 0.045 | inactive: 0.004 | inactive: -0.052 | inactive: -0.03 | inactive: -0.003 | inactive: 0.022 | inactive: 0.001 | inactive: 0.035 | inactive: -0.012 | inactive: 0 | inactive: 0.001 | inactive: -0.01 | inactive: 0.015
DNAJC17 (UniProt Q9NVM6) | inactive: -0.076 | inactive: -0.008 | inactive: -0.038 | inactive: 0.032 | inactive: 0.013 | inactive: 0.064 | inactive: -0.022 | inactive: 0.017 | inactive: -0.025 | inactive: 0.047 | inactive: -0.047 | inactive: 0.032 | inactive: 0.024 | inactive: -0.031 | inactive: 0.034 | inactive: 0.044 | inactive: -0.115 | inactive: 0 | inactive: 0.015 | inactive: 0.064
DHRS7B (UniProt Q6IAN0) | inactive: -0.025 | inactive: 0.036 | inactive: 0.015 | inactive: -0.013 | inactive: -0.031 | inactive: -0.033 | inactive: -0.066 | inactive: 0.018 | inactive: -0.026 | inactive: 0.036 | inactive: -0.004 | inactive: 0.142 | inactive: 0.048 | inactive: -0.035 | inactive: 0.018 | inactive: 0.053 | inactive: -0.008 | inactive: -0.017 | inactive: -0.013 | inactive: 0.024
DNAJC19 (UniProt Q96DA6) | inactive: -0.021 | inactive: 0.012 | inactive: 0.003 | inactive: -0.004 | inactive: 0.017 | inactive: -0.009 | inactive: 0.028 | inactive: -0.124 | inactive: -0.004 | inactive: -0.054 | inactive: -0.007 | inactive: 0.04 | inactive: -0.023 | inactive: 0.017 | inactive: 0.04 | inactive: -0.035 | inactive: 0.016 | inactive: 0.033 | inactive: -0.111 | inactive: -0.065
DNAH8 (UniProt Q96JB1) | inactive: 0.121 | inactive: 0.04 | inactive: 0.048 | inactive: 0.16 | inactive: 0.094 | inactive: -0.221 | inactive: -0.206 | inactive: 0.036 | inactive: -0.005 | inactive: -0.04 | inactive: -0.092 | inactive: 0.178 | inactive: 0.153 | inactive: -0.095 | inactive: 0.214 | inactive: -0.013 | inactive: -0.036 | inactive: 0.049 | inactive: 0.18 | inactive: 0.115
DHX35 (UniProt Q9H5Z1) | inactive: -0.085 | inactive: 0.046 | inactive: -0.069 | inactive: -0.061 | inactive: -0.041 | inactive: -0.057 | inactive: -0.141 | inactive: 0.104 | inactive: 0.02 | inactive: -0.057 | inactive: 0.085 | inactive: -0.136 | inactive: 0.026 | inactive: 0.087 | inactive: -0.01 | inactive: 0.058 | inactive: 0.172 | inactive: 0.014 | inactive: -0.021 | inactive: -0.094
DIEXF (UniProt Q68CQ4) | inactive: 0.062 | inactive: -0.011 | inactive: 0.052 | inactive: -0.062 | inactive: -0.047 | inactive: 0.015 | inactive: 0.014 | inactive: 0.003 | inactive: -0.025 | inactive: -0.07 | inactive: 0.001 | inactive: -0.11 | inactive: -0.11 | inactive: -0.003 | inactive: -0.021 | inactive: -0.006 | inactive: 0.052 | inactive: -0.037 | inactive: 0.011 | inactive: -0.017
DNAAF2 (UniProt Q9NVR5) | inactive: 0.051 | inactive: 0.005 | inactive: -0.016 | inactive: 0.038 | inactive: 0.018 | inactive: -0.022 | inactive: 0.008 | inactive: 0.022 | inactive: -0.021 | inactive: -0.015 | inactive: -0.018 | inactive: 0.033 | inactive: 0.027 | inactive: -0.044 | inactive: 0.042 | inactive: 0.063 | inactive: -0.019 | inactive: -0.018 | inactive: 0.004 | inactive: 0.008
DHRS1 (UniProt Q96LJ7) | inactive: 0.436 | inactive: 0.187 | inactive: 0.053 | inactive: -0.045 | inactive: 0.012 | inactive: -0.029 | inactive: -0.042 | inactive: -0.05 | inactive: 0.001 | inactive: 0.026 | inactive: -0.057 | inactive: 0.02 | inactive: 0.188 | inactive: -0.238 | inactive: -0.012 | inactive: 0.164 | inactive: -0.102 | inactive: 0.059 | inactive: 0.028 | inactive: -0.075
DIMT1 (UniProt Q9UNQ2) | inactive: -0.035 | inactive: 0.016 | inactive: 0.011 | inactive: -0.043 | inactive: 0.002 | inactive: 0.021 | inactive: 0.054 | inactive: -0.012 | inactive: -0.002 | inactive: -0.012 | inactive: 0.02 | inactive: 0.009 | inactive: 0.01 | inactive: -0.004 | inactive: -0.012 | inactive: -0.001 | inactive: 0.018 | inactive: -0.025 | inactive: -0.011 | inactive: 0.008
DKC1 (UniProt O60832) | inactive: 0.008 | inactive: 0.025 | inactive: 0.043 | inactive: 0.061 | inactive: 0.016 | inactive: 0 | inactive: -0.051 | inactive: 0.035 | inactive: 0.02 | inactive: -0.003 | inactive: -0.026 | inactive: 0.029 | inactive: 0.005 | inactive: -0.065 | inactive: 0.017 | inactive: 0.009 | inactive: 0.027 | inactive: 0.009 | inactive: -0.006 | inactive: 0.008
DHX29 (UniProt Q7Z478) | inactive: -0.007 | inactive: 0.029 | inactive: 0.019 | inactive: 0.019 | inactive: -0.015 | inactive: -0.036 | inactive: -0.06 | inactive: -0.024 | inactive: 0.009 | inactive: 0.01 | inactive: -0.027 | inactive: 0.01 | inactive: 0.006 | inactive: 0.009 | inactive: 0.01 | inactive: 0.019 | inactive: -0.021 | inactive: 0.048 | inactive: -0.01 | inactive: 0.006

Some of the entries so far, as tab-separated lines:
Target	log2 fold change (vemurafenib)	log2 fold change [1]	log2 fold change (barasertib)	log2 fold change [2]	log2 fold change (volasertib)	log2 fold change [3]	log2 fold change [4]	log2 fold change [5]	log2 fold change (saracatinib)	log2 fold change (sotrastaurin)	log2 fold change (alvocidib)	log2 fold change (Tubastatin A)	log2 fold change [6]	log2 fold change (defactinib)	log2 fold change [7]	log2 fold change (encorafenib)	log2 fold change [8]	log2 fold change (alisertib)	log2 fold change [9]	log2 fold change (gefitinib)
DNAJC5 (UniProt Q9H3Z4)	inactive: 0.001	inactive: -0.02	inactive: 0.008	inactive: -0.031	inactive: 0.012	inactive: 0.015	active: -0.476	inactive: 0.243	inactive: 0.01	inactive: 0.041	inactive: -0.216	inactive: 0.062	inactive: 0.019	inactive: 0.011	inactive: 0.054	inactive: 0.016	inactive: -0.057	inactive: -0.119	inactive: 0.019	inactive: -0.039
DIEXF (UniProt Q68CQ4)	inactive: 0.062	inactive: -0.011	inactive: 0.052	inactive: -0.062	inactive: -0.047	inactive: 0.015	inactive: 0.014	inactive: 0.003	inactive: -0.025	inactive: -0.07	inactive: 0.001	inactive: -0.11	inactive: -0.11	inactive: -0.003	inactive: -0.021	inactive: -0.006	inactive: 0.052	inactive: -0.037	inactive: 0.011	inactive: -0.017
